In one experiment the target is T1, HA-tagged NRF2 (UniProt Q16236).
T1 sequence: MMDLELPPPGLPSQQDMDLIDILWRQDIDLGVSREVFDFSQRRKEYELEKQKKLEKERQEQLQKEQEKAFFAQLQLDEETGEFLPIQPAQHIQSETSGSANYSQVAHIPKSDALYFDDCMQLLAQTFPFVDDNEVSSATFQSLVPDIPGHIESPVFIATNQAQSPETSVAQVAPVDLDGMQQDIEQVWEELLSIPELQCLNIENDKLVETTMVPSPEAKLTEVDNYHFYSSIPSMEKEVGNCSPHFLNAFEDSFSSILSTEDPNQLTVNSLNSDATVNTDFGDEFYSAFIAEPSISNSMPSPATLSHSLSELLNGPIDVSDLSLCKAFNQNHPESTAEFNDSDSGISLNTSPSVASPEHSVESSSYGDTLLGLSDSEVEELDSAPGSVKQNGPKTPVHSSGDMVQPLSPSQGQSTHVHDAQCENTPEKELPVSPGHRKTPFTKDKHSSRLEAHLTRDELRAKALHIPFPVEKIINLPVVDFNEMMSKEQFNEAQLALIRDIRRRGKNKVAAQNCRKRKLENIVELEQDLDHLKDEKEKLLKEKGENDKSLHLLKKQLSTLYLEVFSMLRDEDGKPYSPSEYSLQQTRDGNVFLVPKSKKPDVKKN
Nature of the experiment: co-IP; 293T cells co-transfected with FLAG-SNF2L and HA-NRF2 plasmids for 24 h; sonicated in RIPA buffer with proteinase inhibitor; 1 mg total protein precipitated overnight with anti-HA or anti-FLAG antibodies on Protein A/G Dynabeads; five RIPA washes; western blot with anti-HA and anti-FLAG. In general terms: In western blotting, separated proteins are transferred to a membrane and probed.

Chains of the proteins cited; added tags and fusions are not shown.
UniProt P28370: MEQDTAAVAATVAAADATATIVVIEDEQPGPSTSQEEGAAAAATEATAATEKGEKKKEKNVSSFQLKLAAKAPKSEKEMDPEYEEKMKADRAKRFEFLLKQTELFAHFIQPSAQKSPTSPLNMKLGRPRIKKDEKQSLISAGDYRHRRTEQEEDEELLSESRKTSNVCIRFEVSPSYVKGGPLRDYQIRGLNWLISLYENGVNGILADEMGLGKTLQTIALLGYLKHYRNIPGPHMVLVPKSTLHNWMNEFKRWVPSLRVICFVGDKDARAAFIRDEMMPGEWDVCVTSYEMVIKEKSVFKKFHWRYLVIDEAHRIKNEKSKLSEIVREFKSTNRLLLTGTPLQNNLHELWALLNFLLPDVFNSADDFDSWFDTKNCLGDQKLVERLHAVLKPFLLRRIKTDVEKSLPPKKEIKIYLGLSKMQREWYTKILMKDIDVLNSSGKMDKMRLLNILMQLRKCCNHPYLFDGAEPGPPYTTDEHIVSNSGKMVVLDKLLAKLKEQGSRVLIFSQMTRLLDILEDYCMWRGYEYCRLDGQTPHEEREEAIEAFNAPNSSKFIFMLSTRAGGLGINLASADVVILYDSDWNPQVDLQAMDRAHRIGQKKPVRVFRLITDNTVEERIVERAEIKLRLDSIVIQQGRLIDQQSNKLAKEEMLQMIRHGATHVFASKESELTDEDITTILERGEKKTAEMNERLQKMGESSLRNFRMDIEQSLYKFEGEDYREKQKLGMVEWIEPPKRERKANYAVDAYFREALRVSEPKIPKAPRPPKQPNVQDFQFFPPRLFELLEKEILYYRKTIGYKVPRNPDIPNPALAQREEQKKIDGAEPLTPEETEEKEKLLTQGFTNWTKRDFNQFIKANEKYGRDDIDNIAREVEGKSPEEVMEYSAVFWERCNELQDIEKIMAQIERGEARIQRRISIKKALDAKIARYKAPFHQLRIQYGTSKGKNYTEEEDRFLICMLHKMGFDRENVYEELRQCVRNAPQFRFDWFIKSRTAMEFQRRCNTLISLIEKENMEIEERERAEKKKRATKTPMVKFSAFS

Another experiment concerns the target FLAG-tagged SNF2L (UniProt P28370). The experiment is described as above.

These results are taken from publication PMC11557580.

No constants are given. Whether binding was seen depends on the method and setting. In cells and extracts the contact can be indirect. Some entries that bind do so weakly or less than the wild type. Sequences can lack the tags named with a protein.

Consider “FLAG-tagged SNF2L (from UniProt P28370 1-1042)”, for which the binding result with HA-tagged NRF2 is given as “binds”.

B1: HA-tagged NRF2 (protein, UniProt Q16236 1-605)
chain: T1 sequence
Regarding B1, in the experiment with FLAG-tagged SNF2L, the binding result is “binds”.
